{"source": "PubChem BioAssay AID1259254 (NCATS, 2017)", "aim": "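Genome-wide screen for genes that prevent DNA re-replication in cancer cells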 (primary screen)", "system": "human HCT116 colorectal cancer cells", "reagents": "single siRNA against human genes", "duration": "3 days", "detection": "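Nuclei stained with Hoechst and imaged; cell-cycle phase assigned by DNA content; G2 share scaled per plate, non-targeting siRNA 0%, GMNN siRNA 100%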", "scale": "G2 robust z-score: higher = more G2 cells, more excess DNA replication", "call rule": "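Active siRNAs have a G2 robust z of 5 or more median absolute deviations over the median, which in these data means about 38% or higher of GMNN control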", "note": "This is a random part of about 59,000 reagents. Of all reagents, about 1,550 (2.6%) got an active call. 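G2 share is only a proxy for re-replication; each gene was hit by three separate siRNAs, and active genes were retested.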 Further read-outs or replicates are left out here. Not stated in the record: the amount of reagent."}
{"gene symbol": "LIN52", "PubChem SID": "SID160754090", "G2 robust z-score": 2.03, "Outcome": "inactive"}
{"gene symbol": "LIN52", "PubChem SID": "SID160754091", "G2 robust z-score": 0.15, "Outcome": "inactive"}
{"gene symbol": "LIN52", "PubChem SID": "SID160754092", "G2 robust z-score": 1.29, "Outcome": "inactive"}
{"gene symbol": "ARIH1", "PubChem SID": "SID160730903", "G2 robust z-score": -0.843, "Outcome": "inactive"}
{"gene symbol": "ARIH1", "PubChem SID": "SID160758095", "G2 robust z-score": 11, "Outcome": "active"}
{"gene symbol": "ARIH1", "PubChem SID": "SID160758196", "G2 robust z-score": -0.122, "Outcome": "inactive"}
{"gene symbol": "S100A7P3", "PubChem SID": "SID160731731", "G2 robust z-score": -0.975, "Outcome": "inactive"}
{"gene symbol": "S100A7P3", "PubChem SID": "SID160769726", "G2 robust z-score": -0.419, "Outcome": "inactive"}
{"gene symbol": "S100A7P3", "PubChem SID": "SID160769727", "G2 robust z-score": 0.387, "Outcome": "inactive"}
{"gene symbol": "PTPN18", "PubChem SID": "SID160730937", "G2 robust z-score": -0.475, "Outcome": "inactive"}
{"gene symbol": "PTPN18", "PubChem SID": "SID160737975", "G2 robust z-score": 0.402, "Outcome": "inactive"}
{"gene symbol": "PTPN18", "PubChem SID": "SID160737976", "G2 robust z-score": 2.5, "Outcome": "inactive"}

4 of these entries in another layout.
gene symbol	PubChem SID	G2 robust z-score	Outcome
LIN52	SID160754091	0.15	inactive
LIN52	SID160754092	1.29	inactive
ARIH1	SID160730903	-0.843	inactive
ARIH1	SID160758095	11	active

Further reagents follow:
{"gene symbol": "CRLS1", "PubChem SID": "SID160742020", "G2 robust z-score": 0.722, "Outcome": "inactive"}
{"gene symbol": "CRLS1", "PubChem SID": "SID160742021", "G2 robust z-score": -0.0377, "Outcome": "inactive"}
{"gene symbol": "CRLS1", "PubChem SID": "SID160742022", "G2 robust z-score": 3.85, "Outcome": "inactive"}
{"gene symbol": "FAM177A1P1", "PubChem SID": "SID160772055", "G2 robust z-score": 0.192, "Outcome": "inactive"}
{"gene symbol": "FAM177A1P1", "PubChem SID": "SID160772056", "G2 robust z-score": -0.541, "Outcome": "inactive"}
{"gene symbol": "FAM177A1P1", "PubChem SID": "SID160772057", "G2 robust z-score": -0.0618, "Outcome": "inactive"}
{"gene symbol": "PTGS2", "PubChem SID": "SID160715321", "G2 robust z-score": 1.1, "Outcome": "inactive"}
{"gene symbol": "PTGS2", "PubChem SID": "SID160715322", "G2 robust z-score": 4.13, "Outcome": "inactive"}
{"gene symbol": "PTGS2", "PubChem SID": "SID160715323", "G2 robust z-score": 1.74, "Outcome": "inactive"}
{"gene symbol": "TWNK", "PubChem SID": "SID160745099", "G2 robust z-score": -1.96, "Outcome": "inactive"}
{"gene symbol": "TWNK", "PubChem SID": "SID160745100", "G2 robust z-score": -0.309, "Outcome": "inactive"}
{"gene symbol": "TWNK", "PubChem SID": "SID160745102", "G2 robust z-score": 0.105, "Outcome": "inactive"}
